Source: PubChem BioAssay AID504444 (National Center for Advancing Translational Sciences (NCATS), 2011)
Out of some 360,000 compounds screened, about 7,500 (2.1%) were called active. This list was built around the results that the source calls inconclusive (neither active nor inactive); the mix of calls is not that of the screen. Calls follow the shape of the dose curve; as a rule, active = well fitted inhibition curve with a large enough effect; inconclusive = small, poorly fitted or top-dose-only effect, or effect the other way; inactive = flat fitted curve, though single readings scatter. Where the call is inconclusive, the potency comes from a doubtful curve fit.

Assay: Nrf2 qHTS screen for inhibitors; also: nearly all actives have a fitted effect of over 60% in size
Details: A549 ARE-Fluc reporter, luciferase luminescence, 18-24 h; series mostly up to 46 µM
Outline: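 Nrf2 activity is the BugLite luminescence, read 15 min after reagent at room temperature, following CellTiter-Fluor cytotoxicity readout (30 min, 37C). Compound titrations were applied for 18-24 h to 5000 A549 ARE_Fluc cells/well in 5% FBS OPTI-MEM.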
Potency is read from the fitted curve at half-maximal effect.

Row | SMILES | Potency
1 | CCCn1c(NC(=O)c2ccc(C)cc2)nc2ccccc21 | inconclusive: 2.06 µM [activator, single point]
2 | O=C(NCCC1=CCCCC1)c1ccc(=O)oc1 | inconclusive: 20.6 µM [activator, single point]
3 | CC(C)COCc1ccc(O)c2ncccc12 | inactive
4 | Cc1nc(C(=O)Nc2ccc(Cl)cc2Cl)nn1-c1cc(OC(C)C)c(Cl)cc1Cl | inactive
5 | CCN(CC)S(=O)(=O)c1cc(NC(=O)C(C)N2CCN(Cc3ccc4c(c3)OCO4)CC2)ccc1C (stereo not given) | inconclusive: 13 µM [falling, single point]
6 | Cc1occc1C(=O)Nc1ccc(Br)cc1F | inconclusive: 5.17 µM [activator, full curve]
7 | Cn1c(NC(=O)c2cccs2)cc(=O)n(C)c1=O | inactive
8 | COc1ccc(C(O)(CCc2ccccc2)CCN2CCCCC2)cc1 (stereo not given) | inactive
9 | O=C(Nc1nccs1)c1ccc(Br)cc1 | inconclusive: 20.6 µM [activator, single point]
10 | CC1CC(C)(C)n2c(O)c(N=NC(N)=S)c3cccc1c32 (stereo not given) | active: 14.6 µM
11 | CCCC(=O)Nc1ccc2nc(SCC(=O)Nc3ccc(N4CCOCC4)c(Cl)c3)sc2c1 | inconclusive: 2.59 µM [activator, single point]
12 | COC(=O)c1ccc(NC(=O)CN(Cc2ccccc2)S(=O)(=O)c2ccc(Cl)cc2)cc1 | inconclusive: 20.6 µM [falling, single point]
13 | CCn1nc(C)c(NC(=O)CCSc2nc(-c3ccco3)cc(C(F)(F)F)n2)c1C | inconclusive: 29.1 µM [falling, partial curve, poor fit]
14 | CCCn1c(-c2nonc2N)nc2ccccc21 | inactive
15 | CCC(C)(C)NC(=O)C(c1ccncc1)N(Cc1cccs1)C(=O)Cn1nnc2ccccc21 (stereo not given) | inconclusive: 6.51 µM [activator, single point]
16 | N#Cc1c(NC(=S)NC(=O)Cc2cccs2)sc2c1CCCCC2 | inconclusive: 23.1 µM [falling, partial curve, poor fit]
17 | COc1cccc(C(=O)n2nc(-c3cccnc3)nc2NCc2ccc(F)cc2)c1 | inconclusive: 9.2 µM [falling, partial curve, poor fit]
18 | CCN(CC)CCSc1nnc2c3cc(F)ccc3n(CC)c2n1 | inactive
19 | O=C(O)CNS(=O)(=O)c1ccc2c(c1)Cc1cc(S(=O)(=O)NCC(=O)O)ccc1-2 | inconclusive: 13 µM [activator, partial curve, poor fit]
20 | CCOc1ccc(NC(N)=O)cc1OCC | inconclusive: 5.17 µM [falling, single point]

2 entries from above, as a markdown table:

| Row | SMILES | Potency |
| --- | --- | --- |
| 19 | O=C(O)CNS(=O)(=O)c1ccc2c(c1)Cc1cc(S(=O)(=O)NCC(=O)O)ccc1-2 | inconclusive: 13 µM [activator, partial curve, poor fit] |
| 20 | CCOc1ccc(NC(N)=O)cc1OCC | inconclusive: 5.17 µM [falling, single point] |
